Measurements from “University of Dundee, Small-Polar-MMV Screening Library” (2021), ChEMBL document CHEMBL3988442.

Protein sequences, listed by entry. Tags and fused reporters are not part of them.
UniProt E9BF75, entry or part of it: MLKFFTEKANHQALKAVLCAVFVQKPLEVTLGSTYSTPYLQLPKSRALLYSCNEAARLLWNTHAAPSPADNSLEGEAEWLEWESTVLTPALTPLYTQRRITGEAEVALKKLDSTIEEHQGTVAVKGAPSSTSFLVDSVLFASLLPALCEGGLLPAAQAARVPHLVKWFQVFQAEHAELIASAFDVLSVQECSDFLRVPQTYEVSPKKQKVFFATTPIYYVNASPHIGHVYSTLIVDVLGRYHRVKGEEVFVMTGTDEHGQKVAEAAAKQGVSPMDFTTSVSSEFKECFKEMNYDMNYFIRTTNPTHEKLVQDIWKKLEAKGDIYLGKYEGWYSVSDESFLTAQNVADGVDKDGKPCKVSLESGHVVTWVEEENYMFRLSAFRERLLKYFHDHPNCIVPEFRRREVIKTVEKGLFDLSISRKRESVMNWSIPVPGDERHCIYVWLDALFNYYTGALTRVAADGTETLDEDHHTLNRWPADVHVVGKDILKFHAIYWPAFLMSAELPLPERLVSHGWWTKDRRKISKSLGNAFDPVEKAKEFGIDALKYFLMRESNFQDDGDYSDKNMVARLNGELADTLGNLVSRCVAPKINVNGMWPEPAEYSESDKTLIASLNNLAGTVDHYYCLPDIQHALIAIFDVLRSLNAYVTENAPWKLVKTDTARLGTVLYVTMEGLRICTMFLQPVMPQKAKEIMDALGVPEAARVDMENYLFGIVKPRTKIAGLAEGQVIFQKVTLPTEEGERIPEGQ

Results are percentages, as filed. How 0% and 100% were set is not recorded. Most values in the screen are low, and negative values occur. Compounds were drawn at random from those tested, without regard to their results.

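Methionyl-tRNA synthetase (putative), Leishmania donovani (UniProt E9BF75). Primary screen of methionyl-tRNA synthetase; the read-out is not stated. The test concentration is not given. Values are per cent inhibition. Of about 68,000 compounds tested this way, about 24 (0.035%) reached 50% or more in at least one test.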

| # | SMILES | inhibition |
|---|---|---|
| 1 | `Cc1noc(C)c1CN1CCN(Cc2ccncc2)c2ncccc2C1` | 19.16 |
| 2 | `CCC(C)(CC)NC(=O)COc1nn(C)c2nc(C)cc(C)c12` | 5.076 |
| 3 | `COCC1COCCC12CCN(Cc1nccs1)CC2` (centres undefined) | 2.186 |
| 4 | `O=C(CCCn1ccnc1)N[C@H]1CN(C2CCCC2)C[C@@H]1C1CC1` | 9.749 |
| 5 | `Cc1nc(CN2C(=O)CCC23CCN(c2ncccn2)CC3)cs1` | 19.67 |
| 6 | `Cc1cc(C(=O)N2CCn3cc(CN(C)C)nc3C2)no1` | 8.955 |
| 7 | `CCCN1CCCC2(CCN(S(=O)(=O)N3CCC(OC)CC3)C2)C1=O` (centres undefined) | 1.961 |
| 8 | `Cc1nc(-c2ccccc2)c(C(=O)N2CCC3(CC(=O)NC3=O)C2)s1` (centres undefined) | 12.53 |
| 9 | `CCN1CC2(CCN(C(=O)C(C)Oc3ccc(F)cc3Cl)CC2)CC1=O` (centres undefined) | 15.33 |
| 10 | `CN(C)C(=O)C1CCC2(CCN(Cc3ccc4ccccc4n3)CC2)O1` (centres undefined) | 16.25 |
| 11 | `CCN(C)C(=O)Nc1cc(F)c(OC)cc1F` | -2.957 |
| 12 | `CN(Cc1n[nH]c2c1CCC2)c1nc(C2CCCC2)nc2c1CNC2` | 11.76 |
| 13 | `CN(C)CCCn1ccnc1C1CCCN(c2ncc(Cl)cc2F)C1` (centres undefined) | 16.72 |
| 14 | `CN(C)C(=O)N1CCc2c(nnn2C)C1COCc1ccccc1` (centres undefined) | 19.67 |
| 15 | `CCOc1ccc(CC(CNC(=O)c2occc2C)C(N)=O)cc1` (centres undefined) | 11.81 |
| 16 | `CC(C(=O)N1CCN(C)CC1)n1cc(Br)cn1` (centres undefined) | -47.49 |
| 17 | `O=C(c1ccccn1)N1CCC2(CCCN(c3nncs3)C2)C1` (centres undefined) | 12.89 |
| 18 | `c1ccc(CN2CCCC2Cn2cncn2)nc1` (centres undefined) | 4.225 |
| 19 | `COc1cccn(CC(=O)N2CCCC3(CCOCC3)C2)c1=O` | 6.977 |
| 20 | `CCc1nc(CN2CCOC(CN(C)c3cccnn3)C2)cs1` (centres undefined) | 3.78 |
| 21 | `CN(Cc1cccnc1)C1CC2(CCN(c3ccccn3)CC2)C1` | 16.38 |
| 22 | `CC(C)[C@H]1COC(=O)N1CC(=O)N1CCN(C(=O)c2ccco2)CC1` | 3.015 |
| 23 | `CC(C)c1cc(N[C@H](C(N)=O)C(C)C)n2nccc2n1` | 6.863 |
| 24 | `O=C1[C@@H]2CN(Cc3ccccn3)C[C@H]2CCN1c1cncnc1` | 15.69 |
| 25 | `CS(=O)(=O)NCC1CCCN(Cc2ccc(F)c3cccnc23)C1` (centres undefined) | 13.39 |
| 26 | `CCC(C(=O)N1CCS(=O)(=O)CC1)n1cccn1` (centres undefined) | 20 |
| 27 | `Cc1nn(C)cc1CNCc1ccc(N(C)C)cc1` | 11.62 |
| 28 | `Cc1cc(N2CCC(NC(C)Cc3ccsc3)CC2)nc(C)n1` (centres undefined) | 13.19 |
| 29 | `Cc1nc(N2CCCCC2)ncc1C(=O)N1CC(C)(C)[C@@](C)(O)C1` | 15.24 |
| 30 | `CCCNC(=O)c1cc2c(s1)CCN2C(=O)c1ccccc1` | -27.67 |
| 31 | `Cc1cnccc1CN(C)Cc1c[nH]nc1-c1ccc(F)cc1F` | 10.68 |
| 32 | `COC(=O)CCCn1ccnc1C(C)c1ccccc1` (centres undefined) | -0.8065 |
| 33 | `COC(=O)c1ccc(Cn2cccc(C(F)(F)F)c2=O)c(OC)c1` | 4.181 |
| 34 | `C[C@@H]1C[C@@H]2CCN(C(=O)c3ccncn3)C[C@H]2O1` | 14.7 |
| 35 | `CCC(Cn1ccnc1)n1cnc2c(C)csc2c1=O` (centres undefined) | 15.05 |
| 36 | `O=C(NCCn1nc2ccccn2c1=O)c1cc(C2CC2)[nH]n1` | 1.044 |
| 37 | `Cc1ccc(CNC(=O)CCC(=O)NCCC(C)C)o1` | 8.271 |
| 38 | `Cc1ccc(F)cc1C(=O)NCc1ccc(C(=O)O)o1` | 0.8357 |
| 39 | `Clc1ccccc1CN1CCc2nc(C3CCCNC3)ncc2C1` (centres undefined) | 20.71 |
| 40 | `Cc1ccccc1-n1ccc2nc(N3CCCC3)ncc2c1=O` | 11.69 |
| 41 | `CCNc1ccnc(N2CCN(Cc3ncccc3C)CC2)n1` | 9.091 |
| 42 | `Cc1cc(-c2cc(N)c(=O)n(CC(=O)NC3CCCC3)n2)c(C)o1` | 2.812 |
| 43 | `COc1ncccc1C(=O)N1CCC(Nc2ccc(C)nn2)CC1` | 11.45 |
| 44 | `CCC(O)CN1CCN(C(=O)c2ccn(-c3ccccc3)n2)CC1` (centres undefined) | 14.46 |
| 45 | `Cc1nc(C)c(Cc2nc(C3CC3)n[nH]2)c(=O)[nH]1` | 13.17 |
| 46 | `O=C(c1ccoc1)N1CC[C@@H]2[C@H]1CCC(=O)N2c1ccccc1` | 17.07 |
| 47 | `COc1ccc(CNC(Cc2cccs2)c2nc(C)c(C)s2)cc1OC` (centres undefined) | 12.86 |
| 48 | `CC1CCCN(S(=O)(=O)N2CCOC3(CCCC3)C2)C1` (centres undefined) | 10.31 |
| 49 | `O=C(CSCC1CC1)N1C[C@@H]2CC[C@H](C1)N(Cc1ccccn1)C2=O` | 4.982 |
| 50 | `O=c1[nH]c(NC2CCCC2)nc2nccc(-c3cccs3)c12` | -16.67 |
| 51 | `Cc1occc1C(=O)N1Cc2nccn2CC(CN2CCOCC2)C1` (centres undefined) | 22.53 |
| 52 | `O=C(c1coc(COc2ccccc2F)n1)N1CCC[C@H]1CO` | 15.87 |
| 53 | `Cc1cc(-c2ccccc2)nc(C2CCCN2S(C)(=O)=O)n1` (centres undefined) | 9.974 |
| 54 | `CN(C)C(=O)CN1C(=O)CCC12CCN(Cc1cccn1C)CC2` | 14.48 |
| 55 | `Cc1nn(C)c(N2CCOCC2)c1CNCc1ccccc1CO` | 20.44 |
| 56 | `CN1C(=O)C(C)(C)COc2cc(NS(=O)(=O)c3ccccc3F)ccc21` | 5.07 |
| 57 | `CCNC(=O)N[C@H]1C[C@@H](Cc2cc(CN3CCCCC3)on2)C1(C)C` | 9.446 |
| 58 | `O=C(C1CCCC1)N1CCCC([C@@H]2C[C@H](C(F)F)n3ncnc3N2)C1` (some centres undefined) | 11.21 |
| 59 | `COc1ccccc1C1(CNC(=O)NCc2noc(C)n2)CC1` | 6.469 |
| 60 | `Cc1noc(C(C)N2CCN(CCn3ccccc3=O)CC2)n1` (centres undefined) | 16.16 |
| 61 | `CS(=O)(=O)N1CCC(CNC(=O)C2CCCC2)CC1` | 9.859 |
| 62 | `O=C(O)C1(Cc2cccc(-c3ccc(F)cc3)c2)CCOCC1` | -4.688 |
| 63 | `Clc1ccc2cccnc2c1CN1CCCC(Cn2cncn2)C1` (centres undefined) | 14.92 |
| 64 | `NC(=O)N1CC[C@H](O)[C@@H]1Cc1cccnc1` | 11.11 |
| 65 | `Cc1cnc(C(=O)NCc2ccnc(N(C)C)c2)cn1` | 7.182 |
| 66 | `COc1c(C)cnc(CNC(=O)c2cc(C)nc3onc(C)c23)c1C` | 18.13 |
| 67 | `Cc1ncsc1CN1CC[C@H]2C(=O)N(c3ccccc3)CCO[C@H]2C1` | 10.1 |
| 68 | `CCNc1cc2c(nn1)CCN(C(=O)c1ccc3c(c1)OCO3)C2` | 12.02 |
| 69 | `c1ccc(CCN2CCC(OCC3CCCCO3)CC2)nc1` (centres undefined) | 4.762 |
| 70 | `Cc1nn(Cc2ccc(C(=O)NCCCN3CCCC3=O)o2)c(C)c1Br` | 8.602 |
| 71 | `N#Cc1ccc(F)cc1Cn1cnc(C2CCC2)cc1=O` | 3.662 |
| 72 | `N#Cc1c(F)cccc1NCCCOCC1CCOCC1` | 11.23 |
| 73 | `CN(Cc1ccccc1)C(=O)c1nc(S(C)(=O)=O)n2ccccc12` | 8.589 |
| 74 | `CC(=O)N1CC2(CCNCC2)c2cc(C)ccc21` | 4.762 |
| 75 | `CN(Cc1ccc(F)cc1)S(=O)(=O)N1CCOCC1` | 7.833 |
| 76 | `Cc1cccc(C(=O)NCCCN2CCN(c3ccccc3)CC2)c1` | 12.75 |
| 77 | `CCN(CC1CCCCO1)C(=O)CCNC(=O)c1ccccc1F` (centres undefined) | 4.087 |
| 78 | `O=C(CCC1CCN(C2CSCCSC2)CC1)NCC1CCCO1` (centres undefined) | 14.72 |
| 79 | `CN(C)C1COC2(CCN(Cc3nccs3)CC2)C1` (centres undefined) | 14.52 |
| 80 | `Cn1cccc1CN1CCC2(CCCN(C(=O)c3cnccn3)C2)C1` (centres undefined) | -1.961 |
| 81 | `COCCCN1CCCN(C(C)C(=O)Nc2ccnn2C(C)C)CC1` (centres undefined) | 11.43 |
| 82 | `O=C(CCCc1ccc(F)cc1)N1C[C@@H](CN2CCOCC2)[C@@H](CO)C1` | 15.27 |
| 83 | `Cc1nnc(SCC(=O)c2cc3c(cc2Cl)NC(=O)C3)o1` | 11.66 |
| 84 | `CC1CN(CCc2ccncc2)CCO1` (centres undefined) | 7.527 |
| 85 | `O=C(NCCc1ccc(Cl)s1)N1CCS(=O)(=O)CC1` | 12.32 |
| 86 | `Cc1ncccc1C(=O)NCc1ccccc1CN(C)Cc1ccco1` | 4.348 |
| 87 | `COc1ccc(OC)c(-c2nc(CN(C)Cc3nncn3C)c(C)o2)c1` | 12.32 |
| 88 | `Cc1nn(CCO)c(C)c1CN1CCN(C2CCCCC2)C(=O)C1` | 1.875 |
| 89 | `CCn1nc(C)c2nc(C(C)C)nc(NCc3ccccn3)c21` | 22.58 |

Once more, the final 10:

| SMILES | inhibition |
|---|---|
| `Cn1cccc1CN1CCC2(CCCN(C(=O)c3cnccn3)C2)C1` (centres undefined) | -1.961 |
| `COCCCN1CCCN(C(C)C(=O)Nc2ccnn2C(C)C)CC1` (centres undefined) | 11.43 |
| `O=C(CCCc1ccc(F)cc1)N1C[C@@H](CN2CCOCC2)[C@@H](CO)C1` | 15.27 |
| `Cc1nnc(SCC(=O)c2cc3c(cc2Cl)NC(=O)C3)o1` | 11.66 |
| `CC1CN(CCc2ccncc2)CCO1` (centres undefined) | 7.527 |
| `O=C(NCCc1ccc(Cl)s1)N1CCS(=O)(=O)CC1` | 12.32 |
| `Cc1ncccc1C(=O)NCc1ccccc1CN(C)Cc1ccco1` | 4.348 |
| `COc1ccc(OC)c(-c2nc(CN(C)Cc3nncn3C)c(C)o2)c1` | 12.32 |
| `Cc1nn(CCO)c(C)c1CN1CCN(C2CCCCC2)C(=O)C1` | 1.875 |
| `CCn1nc(C)c2nc(C(C)C)nc(NCc3ccccn3)c21` | 22.58 |